± gives the standard deviation of the averaged measurements. The entries are a selection whose mix differs from that of the whole data set.

Protein sequences, listed by entry. Tags and fused reporters are not part of them. Lines headed by an entry give the natural chain unless they say otherwise; changes in a name come on top.
UniProt Q16254: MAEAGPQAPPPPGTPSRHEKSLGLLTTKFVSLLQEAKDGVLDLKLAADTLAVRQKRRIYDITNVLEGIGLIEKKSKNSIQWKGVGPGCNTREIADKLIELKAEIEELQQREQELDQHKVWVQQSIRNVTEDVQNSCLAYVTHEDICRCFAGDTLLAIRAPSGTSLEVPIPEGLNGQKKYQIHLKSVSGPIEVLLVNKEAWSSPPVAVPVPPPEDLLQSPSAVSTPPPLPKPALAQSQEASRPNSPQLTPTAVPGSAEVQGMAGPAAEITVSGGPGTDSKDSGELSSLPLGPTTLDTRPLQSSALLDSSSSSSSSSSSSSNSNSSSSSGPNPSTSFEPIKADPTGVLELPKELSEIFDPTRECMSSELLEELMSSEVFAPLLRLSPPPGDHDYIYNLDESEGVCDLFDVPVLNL
UniProt Q96JJ3: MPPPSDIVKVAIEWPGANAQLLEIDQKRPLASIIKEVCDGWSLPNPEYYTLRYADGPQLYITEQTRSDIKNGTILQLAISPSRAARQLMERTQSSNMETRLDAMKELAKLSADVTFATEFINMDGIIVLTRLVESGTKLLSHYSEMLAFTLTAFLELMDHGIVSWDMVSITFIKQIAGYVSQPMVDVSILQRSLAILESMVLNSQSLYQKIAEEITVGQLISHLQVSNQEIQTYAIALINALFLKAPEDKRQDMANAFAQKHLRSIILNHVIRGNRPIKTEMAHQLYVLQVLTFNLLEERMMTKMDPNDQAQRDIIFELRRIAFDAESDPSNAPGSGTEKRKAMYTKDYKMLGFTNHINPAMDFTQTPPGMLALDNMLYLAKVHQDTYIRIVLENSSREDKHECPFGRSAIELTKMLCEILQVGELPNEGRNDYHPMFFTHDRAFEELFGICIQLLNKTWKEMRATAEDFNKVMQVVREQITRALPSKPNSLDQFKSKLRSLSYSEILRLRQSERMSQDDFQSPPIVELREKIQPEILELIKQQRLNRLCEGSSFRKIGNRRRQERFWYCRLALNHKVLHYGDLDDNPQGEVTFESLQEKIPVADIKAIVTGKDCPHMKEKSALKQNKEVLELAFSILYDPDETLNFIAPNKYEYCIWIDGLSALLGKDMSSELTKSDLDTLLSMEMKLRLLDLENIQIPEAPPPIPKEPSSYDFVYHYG
UniProt Q15814: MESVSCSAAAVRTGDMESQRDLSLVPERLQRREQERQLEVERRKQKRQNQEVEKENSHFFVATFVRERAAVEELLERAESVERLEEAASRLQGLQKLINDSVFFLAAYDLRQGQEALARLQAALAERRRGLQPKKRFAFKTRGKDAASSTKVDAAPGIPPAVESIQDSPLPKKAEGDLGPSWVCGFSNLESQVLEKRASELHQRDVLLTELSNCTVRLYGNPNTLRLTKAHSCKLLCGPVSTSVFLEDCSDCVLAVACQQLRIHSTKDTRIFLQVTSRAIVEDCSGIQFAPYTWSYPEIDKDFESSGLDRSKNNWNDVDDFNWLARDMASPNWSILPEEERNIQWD
UniProt Q16643: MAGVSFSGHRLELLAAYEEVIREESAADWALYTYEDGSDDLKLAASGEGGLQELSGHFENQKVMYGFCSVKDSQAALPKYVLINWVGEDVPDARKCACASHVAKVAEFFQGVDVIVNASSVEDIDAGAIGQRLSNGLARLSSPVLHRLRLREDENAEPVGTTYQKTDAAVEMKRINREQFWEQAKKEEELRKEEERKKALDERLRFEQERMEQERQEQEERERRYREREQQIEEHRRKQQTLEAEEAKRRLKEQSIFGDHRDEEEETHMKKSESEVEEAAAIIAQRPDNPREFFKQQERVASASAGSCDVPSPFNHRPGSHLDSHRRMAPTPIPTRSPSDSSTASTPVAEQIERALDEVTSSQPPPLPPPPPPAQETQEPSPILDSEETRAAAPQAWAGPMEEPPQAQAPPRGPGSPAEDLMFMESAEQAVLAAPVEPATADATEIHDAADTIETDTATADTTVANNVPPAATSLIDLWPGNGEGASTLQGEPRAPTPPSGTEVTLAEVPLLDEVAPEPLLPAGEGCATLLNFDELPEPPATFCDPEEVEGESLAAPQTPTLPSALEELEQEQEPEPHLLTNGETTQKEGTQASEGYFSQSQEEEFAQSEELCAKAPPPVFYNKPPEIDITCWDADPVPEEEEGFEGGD
UniProt Q4LE39: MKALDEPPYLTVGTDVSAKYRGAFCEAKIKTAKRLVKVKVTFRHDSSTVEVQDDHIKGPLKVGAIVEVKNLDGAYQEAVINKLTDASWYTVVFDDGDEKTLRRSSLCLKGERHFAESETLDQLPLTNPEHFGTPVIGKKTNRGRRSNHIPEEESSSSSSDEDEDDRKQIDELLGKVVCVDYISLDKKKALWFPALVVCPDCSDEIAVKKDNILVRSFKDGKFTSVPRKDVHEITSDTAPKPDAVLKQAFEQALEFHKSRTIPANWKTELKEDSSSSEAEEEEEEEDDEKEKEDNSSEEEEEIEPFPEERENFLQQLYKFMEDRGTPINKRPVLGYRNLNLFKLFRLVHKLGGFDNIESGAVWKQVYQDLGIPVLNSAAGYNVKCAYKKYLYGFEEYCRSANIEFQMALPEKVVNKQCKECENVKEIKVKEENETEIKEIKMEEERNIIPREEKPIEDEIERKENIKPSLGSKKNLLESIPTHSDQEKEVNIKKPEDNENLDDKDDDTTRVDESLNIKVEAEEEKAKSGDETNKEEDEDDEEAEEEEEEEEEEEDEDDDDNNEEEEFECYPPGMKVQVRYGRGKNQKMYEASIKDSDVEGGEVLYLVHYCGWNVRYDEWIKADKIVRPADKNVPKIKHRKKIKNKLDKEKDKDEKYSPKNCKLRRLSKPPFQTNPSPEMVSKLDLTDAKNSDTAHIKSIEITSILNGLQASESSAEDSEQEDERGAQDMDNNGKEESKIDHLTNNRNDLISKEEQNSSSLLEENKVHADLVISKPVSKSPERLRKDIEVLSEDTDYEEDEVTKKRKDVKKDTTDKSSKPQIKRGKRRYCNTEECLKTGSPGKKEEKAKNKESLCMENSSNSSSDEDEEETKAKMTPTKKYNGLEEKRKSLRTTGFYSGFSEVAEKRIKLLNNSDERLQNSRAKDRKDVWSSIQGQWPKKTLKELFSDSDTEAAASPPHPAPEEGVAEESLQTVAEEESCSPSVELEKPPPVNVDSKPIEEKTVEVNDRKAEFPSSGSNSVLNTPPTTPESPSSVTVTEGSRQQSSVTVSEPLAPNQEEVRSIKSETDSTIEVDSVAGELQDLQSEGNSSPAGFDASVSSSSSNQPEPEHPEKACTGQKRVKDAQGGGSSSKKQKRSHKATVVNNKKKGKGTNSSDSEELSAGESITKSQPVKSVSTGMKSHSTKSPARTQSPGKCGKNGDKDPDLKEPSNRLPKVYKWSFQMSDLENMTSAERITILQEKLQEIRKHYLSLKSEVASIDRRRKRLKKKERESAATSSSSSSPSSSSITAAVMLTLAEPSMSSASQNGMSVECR
UniProt Q15652: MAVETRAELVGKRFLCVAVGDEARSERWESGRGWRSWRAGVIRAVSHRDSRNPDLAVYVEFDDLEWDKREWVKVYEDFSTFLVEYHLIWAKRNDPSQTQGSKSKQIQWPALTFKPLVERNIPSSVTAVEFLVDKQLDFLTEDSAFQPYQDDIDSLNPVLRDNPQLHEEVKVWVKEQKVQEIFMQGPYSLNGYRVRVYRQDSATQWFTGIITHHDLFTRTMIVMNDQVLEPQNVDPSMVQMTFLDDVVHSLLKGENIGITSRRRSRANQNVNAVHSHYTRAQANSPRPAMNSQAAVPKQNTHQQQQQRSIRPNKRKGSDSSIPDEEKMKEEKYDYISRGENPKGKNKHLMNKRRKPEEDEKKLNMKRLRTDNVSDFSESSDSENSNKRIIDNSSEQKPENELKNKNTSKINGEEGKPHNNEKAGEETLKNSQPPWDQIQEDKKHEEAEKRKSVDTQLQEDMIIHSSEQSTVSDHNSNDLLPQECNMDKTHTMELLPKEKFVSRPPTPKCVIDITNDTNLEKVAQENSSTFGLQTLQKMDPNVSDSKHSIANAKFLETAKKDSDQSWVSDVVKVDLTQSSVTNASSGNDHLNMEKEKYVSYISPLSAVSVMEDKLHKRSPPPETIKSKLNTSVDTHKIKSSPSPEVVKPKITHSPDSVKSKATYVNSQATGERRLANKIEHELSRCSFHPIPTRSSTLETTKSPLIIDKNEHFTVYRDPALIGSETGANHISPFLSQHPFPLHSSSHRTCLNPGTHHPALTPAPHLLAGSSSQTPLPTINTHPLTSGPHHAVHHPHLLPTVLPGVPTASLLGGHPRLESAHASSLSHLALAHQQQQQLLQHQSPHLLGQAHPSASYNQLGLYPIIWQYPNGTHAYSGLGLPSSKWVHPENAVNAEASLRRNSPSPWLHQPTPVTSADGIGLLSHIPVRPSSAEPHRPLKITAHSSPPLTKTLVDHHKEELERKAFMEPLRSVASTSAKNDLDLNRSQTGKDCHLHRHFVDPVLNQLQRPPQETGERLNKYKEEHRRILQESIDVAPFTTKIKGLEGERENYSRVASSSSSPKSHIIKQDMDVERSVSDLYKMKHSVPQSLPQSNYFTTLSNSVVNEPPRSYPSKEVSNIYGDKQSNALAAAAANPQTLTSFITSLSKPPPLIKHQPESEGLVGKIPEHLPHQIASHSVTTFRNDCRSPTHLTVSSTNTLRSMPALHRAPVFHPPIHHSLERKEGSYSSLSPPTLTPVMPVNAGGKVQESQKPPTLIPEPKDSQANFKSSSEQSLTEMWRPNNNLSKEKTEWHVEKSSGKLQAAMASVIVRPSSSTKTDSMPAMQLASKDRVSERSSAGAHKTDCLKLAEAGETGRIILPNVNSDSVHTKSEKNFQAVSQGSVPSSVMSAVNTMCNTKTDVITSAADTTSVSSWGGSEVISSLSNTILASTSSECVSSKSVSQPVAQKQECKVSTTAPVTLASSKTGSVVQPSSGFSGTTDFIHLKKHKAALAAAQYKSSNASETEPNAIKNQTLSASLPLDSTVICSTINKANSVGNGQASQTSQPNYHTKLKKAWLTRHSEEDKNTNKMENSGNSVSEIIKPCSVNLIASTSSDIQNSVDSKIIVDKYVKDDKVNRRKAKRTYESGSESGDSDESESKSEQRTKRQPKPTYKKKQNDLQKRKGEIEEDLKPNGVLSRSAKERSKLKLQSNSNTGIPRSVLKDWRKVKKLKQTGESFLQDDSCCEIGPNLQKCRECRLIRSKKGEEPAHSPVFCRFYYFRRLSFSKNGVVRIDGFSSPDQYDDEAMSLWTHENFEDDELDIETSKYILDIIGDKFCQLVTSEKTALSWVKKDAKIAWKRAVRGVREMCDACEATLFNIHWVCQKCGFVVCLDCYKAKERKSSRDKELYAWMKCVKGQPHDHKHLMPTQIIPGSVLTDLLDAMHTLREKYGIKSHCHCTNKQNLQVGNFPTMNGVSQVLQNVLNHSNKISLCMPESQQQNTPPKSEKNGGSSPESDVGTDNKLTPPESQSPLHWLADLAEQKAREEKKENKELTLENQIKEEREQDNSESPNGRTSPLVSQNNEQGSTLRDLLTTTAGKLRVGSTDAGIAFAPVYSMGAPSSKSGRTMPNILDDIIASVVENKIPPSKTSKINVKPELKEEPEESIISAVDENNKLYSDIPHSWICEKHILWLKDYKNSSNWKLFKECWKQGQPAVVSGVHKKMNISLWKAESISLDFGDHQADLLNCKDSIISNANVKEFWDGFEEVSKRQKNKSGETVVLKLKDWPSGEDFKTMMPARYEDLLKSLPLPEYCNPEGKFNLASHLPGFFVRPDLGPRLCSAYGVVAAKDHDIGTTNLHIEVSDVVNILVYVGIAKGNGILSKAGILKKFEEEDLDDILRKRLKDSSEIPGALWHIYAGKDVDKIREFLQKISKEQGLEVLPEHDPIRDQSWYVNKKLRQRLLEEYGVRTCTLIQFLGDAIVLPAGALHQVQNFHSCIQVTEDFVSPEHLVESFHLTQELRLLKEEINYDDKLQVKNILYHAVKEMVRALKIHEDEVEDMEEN
UniProt Q3ZCW2: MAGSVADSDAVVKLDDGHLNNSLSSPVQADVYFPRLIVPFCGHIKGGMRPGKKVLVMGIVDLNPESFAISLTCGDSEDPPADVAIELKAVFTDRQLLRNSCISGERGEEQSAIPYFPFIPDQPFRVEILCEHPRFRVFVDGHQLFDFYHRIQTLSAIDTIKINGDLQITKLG
UniProt Q9H6P5: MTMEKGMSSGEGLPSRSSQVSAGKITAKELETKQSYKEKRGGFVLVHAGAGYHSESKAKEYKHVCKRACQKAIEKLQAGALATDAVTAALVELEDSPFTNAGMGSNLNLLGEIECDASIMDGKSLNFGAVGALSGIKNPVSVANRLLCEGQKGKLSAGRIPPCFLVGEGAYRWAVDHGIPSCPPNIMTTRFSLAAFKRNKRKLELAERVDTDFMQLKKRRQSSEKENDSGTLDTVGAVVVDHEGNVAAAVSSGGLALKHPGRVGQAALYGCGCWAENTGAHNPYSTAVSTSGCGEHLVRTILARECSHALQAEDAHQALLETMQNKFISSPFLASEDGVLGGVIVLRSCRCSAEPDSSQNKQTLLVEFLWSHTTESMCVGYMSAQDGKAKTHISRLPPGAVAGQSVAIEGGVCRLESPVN

The results in this text go back to the supplement of paper PMC6411743.

Compound in the assay: Nc1ncnc2c1ncn2[C@@H]1O[C@H](COP(=O)(O)OP(=O)(O)NP(=O)(O)O)[C@@H](O)[C@H]1O [adenylyl imidodiphosphate]
Kind of assay: NP40-soluble protein abundance relative to vehicle (solubility fold change) (ratio); higher = more soluble protein in presence of AMP-PNP. A digest of the protocol:
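Jurkat crude lysate prepared with a Dounce homogeniser was treated at eight concentrations spanning 0.1 to 10 mM, 10 min at room temperature then 3 min at 37 °C. Solubilisation with 0.8% NP40 and benzonase and ultracentrifugation preceded TMT labelling of the supernatant for LC-MS/MS. Fold change against the detergent-processed vehicle was determined per replicate from vsn-normalised intensities, across three independent experiments.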

Consider E2F4 (UniProt Q16254), for which the NP40-soluble protein abundance is, setting by setting: (concentration: 1mM) 1 ± 0.012; (concentration: 2mM) 1.046 ± 0.0071; (concentration: 4mM) 1.01 ± 0.014; (concentration: 6mM) 0.99 ± 0.02; (concentration: 8mM) 0.987 ± 0.041; (concentration: 10mM) 0.9797 ± 0.0063.
In the case of “Q5JVZ5 and related entries (UniProt Q96JJ3)”, the NP40-soluble protein abundance runs as follows: (concentration: 1mM) 0.959 ± 0.03; (concentration: 2mM) 0.931 ± 0.05; (concentration: 4mM) 0.943 ± 0.043; (concentration: 6mM) 0.925 ± 0.081; (concentration: 8mM) 0.91 ± 0.054; (concentration: 10mM) 0.909 ± 0.07.
For TBCC (UniProt Q15814), the NP40-soluble protein abundance was 0.984 ± 0.027 (concentration: 1mM); 0.975 ± 0.022 (concentration: 2mM); 1.03 ± 0.02 (concentration: 4mM); 0.994 ± 0.022 (concentration: 6mM); 1.01 ± 0.043 (concentration: 8mM); 1.01 ± 0.045 (concentration: 10mM).
For the target SKIV2L (UniProt Q15477), the NP40-soluble protein abundance stood at 0.823 ± 0.096 (concentration: 1mM); 0.808 ± 0.13 (concentration: 2mM); 0.805 ± 0.11 (concentration: 4mM); 0.77 ± 0.063 (concentration: 6mM); 0.745 ± 0.076 (concentration: 8mM); 0.754 ± 0.068 (concentration: 10mM).
With UniProt Q16643 and related entries, the NP40-soluble protein abundance runs as follows: (concentration: 1mM) 1.21 ± 0.09; (concentration: 2mM) 1.24 ± 0.17; (concentration: 4mM) 1.19 ± 0.13; (concentration: 6mM) 1.18 ± 0.11; (concentration: 8mM) 1.16 ± 0.094; (concentration: 10mM) 1.26 ± 0.099.
In the case of CDCA8 (UniProt Q53HL2), the NP40-soluble protein abundance by setting is: (concentration: 1mM) 1.02 ± 0.042; (concentration: 2mM) 1.02 ± 0.019; (concentration: 4mM) 1.02 ± 0.034; (concentration: 6mM) 1.06 ± 0.045; (concentration: 8mM) 1.06 ± 0.033; (concentration: 10mM) 1.09 ± 0.031.
With ZC3H13 (UniProt Q5T200), the NP40-soluble protein abundance turned out to be 1.063 ± 0.0095 (concentration: 1mM); 1.12 ± 0.084 (concentration: 2mM); 1.09 ± 0.029 (concentration: 4mM); 1.09 ± 0.047 (concentration: 6mM); 1.09 ± 0.018 (concentration: 8mM); 1.13 ± 0.011 (concentration: 10mM).
For ZC3H12A (UniProt Q5D1E8), the NP40-soluble protein abundance by setting is: (concentration: 1mM) 1.01 ± 0.013; (concentration: 2mM) 1.028 ± 0.0099; (concentration: 4mM) 1 ± 0.011; (concentration: 6mM) 1 ± 0.028; (concentration: 8mM) 0.996 ± 0.03; (concentration: 10mM) 0.967 ± 0.015.
In the case of CTC1 (UniProt Q2NKJ3), the NP40-soluble protein abundance by setting is: (concentration: 1mM) 0.987 ± 0.0099; (concentration: 2mM) 0.982 ± 0.02; (concentration: 4mM) 0.9805 ± 0.0092; (concentration: 6mM) 0.971 ± 0.035; (concentration: 8mM) 0.9712 ± 0.0047; (concentration: 10mM) 0.957 ± 0.029.
Consider UniProt Q4LE39 and related entries, for which the NP40-soluble protein abundance (concentration: 1mM) is 1.02 ± 0.064; the NP40-soluble protein abundance (concentration: 2mM) worked out at 1.069 ± 0.0038; the NP40-soluble protein abundance (concentration: 4mM) amounted to 0.996 ± 0.049; the NP40-soluble protein abundance (concentration: 6mM) amounted to 1.01 ± 0.078; the NP40-soluble protein abundance (concentration: 8mM) turned out to be 0.988 ± 0.072; the NP40-soluble protein abundance (concentration: 10mM) came to 1.03 ± 0.072.
On to UniProt Q2KHR3 and related entries, for which the NP40-soluble protein abundance (concentration: 1mM) worked out at 1.017 ± 0.0039; the NP40-soluble protein abundance (concentration: 2mM) worked out at 0.9946 ± 0.0019; the NP40-soluble protein abundance (concentration: 4mM) is 1.025 ± 0.0071; the NP40-soluble protein abundance (concentration: 6mM) stood at 0.99367 ± 0.00071; the NP40-soluble protein abundance (concentration: 8mM) amounted to 0.993 ± 0.033; the NP40-soluble protein abundance (concentration: 10mM) came to 1.01 ± 0.023.
In the case of UniProt Q15652 and related entries, the NP40-soluble protein abundance by setting is: (concentration: 1mM) 1.001 ± 0.0051; (concentration: 2mM) 1.04 ± 0.013; (concentration: 4mM) 1.062 ± 0.0066; (concentration: 6mM) 1.06 ± 0.025; (concentration: 8mM) 1.061 ± 0.0031; (concentration: 10mM) 1.06 ± 0.021.
Consider LGALSL (UniProt Q3ZCW2), for which the NP40-soluble protein abundance was 1 ± 0.035 (concentration: 1mM); 1.01 ± 0.061 (concentration: 2mM); 1.01 ± 0.058 (concentration: 4mM); 1.02 ± 0.021 (concentration: 6mM); 1 ± 0.022 (concentration: 8mM); 1.02 ± 0.025 (concentration: 10mM).
Consider “Q5JWM4 and related entries (UniProt Q9H6P5)”, for which the NP40-soluble protein abundance runs as follows: (concentration: 1mM) 1.01 ± 0.043; (concentration: 2mM) 1.03 ± 0.066; (concentration: 4mM) 1.03 ± 0.05; (concentration: 6mM) 1.05 ± 0.054; (concentration: 8mM) 1.1 ± 0.09; (concentration: 10mM) 1.13 ± 0.066.
On to UniProt Q5MIZ7 and related entries, for which the NP40-soluble protein abundance (concentration: 1mM) worked out at 1.02 ± 0.035; the NP40-soluble protein abundance (concentration: 2mM) was determined as 1 ± 0.025; the NP40-soluble protein abundance (concentration: 4mM) is 0.994 ± 0.037; the NP40-soluble protein abundance (concentration: 6mM) worked out at 0.982 ± 0.062; the NP40-soluble protein abundance (concentration: 8mM) was 0.973 ± 0.072; the NP40-soluble protein abundance (concentration: 10mM) was 0.972 ± 0.062.
